Laboratory results from PMC8062630, “Structure and assembly of double-headed Sendai virus nucleocapsids” (Communications Biology, 2021).
No constants are given. Whether binding was seen depends on the method and setting. Some results given as binding are weak or reduced against the parent protein; the word gives no strength.

Chains of the proteins cited; added tags and fusions are not shown.
UniProt P04858: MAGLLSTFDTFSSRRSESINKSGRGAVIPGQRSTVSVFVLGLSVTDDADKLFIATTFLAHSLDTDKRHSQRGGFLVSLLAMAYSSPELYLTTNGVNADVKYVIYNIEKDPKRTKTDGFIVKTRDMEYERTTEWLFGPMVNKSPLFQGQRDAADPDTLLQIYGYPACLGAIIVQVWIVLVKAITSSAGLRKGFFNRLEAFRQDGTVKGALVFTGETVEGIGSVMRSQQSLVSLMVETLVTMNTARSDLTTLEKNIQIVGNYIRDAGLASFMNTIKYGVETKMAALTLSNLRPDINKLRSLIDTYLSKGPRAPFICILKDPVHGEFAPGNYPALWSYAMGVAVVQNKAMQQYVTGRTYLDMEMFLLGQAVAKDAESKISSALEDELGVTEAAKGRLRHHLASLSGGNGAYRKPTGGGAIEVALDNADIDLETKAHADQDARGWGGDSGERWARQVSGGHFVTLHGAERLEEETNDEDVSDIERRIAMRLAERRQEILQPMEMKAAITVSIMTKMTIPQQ

Molecular target: Sendai virus nucleoprotein in nucleocapsids released from wild-type SeV virions (Sendai virus) (UniProt P04858)
Assay: cryo-EM imaging of filaments; purified SeV virions lysed with 2% Triton X-100 for 6 h at 4 °C, put directly on cryo-EM grids

Question: How did the binding turn out when “Sendai virus nucleoprotein in nucleocapsids released from wild-type SeV virions (from UniProt P04858 1-517)” was run?
Answer: Its binding is “binds”.
